The results in this text go back to publication PMC10132808.

Amino acid sequences for entries named in this document (tags omitted).
UniProt Q06187: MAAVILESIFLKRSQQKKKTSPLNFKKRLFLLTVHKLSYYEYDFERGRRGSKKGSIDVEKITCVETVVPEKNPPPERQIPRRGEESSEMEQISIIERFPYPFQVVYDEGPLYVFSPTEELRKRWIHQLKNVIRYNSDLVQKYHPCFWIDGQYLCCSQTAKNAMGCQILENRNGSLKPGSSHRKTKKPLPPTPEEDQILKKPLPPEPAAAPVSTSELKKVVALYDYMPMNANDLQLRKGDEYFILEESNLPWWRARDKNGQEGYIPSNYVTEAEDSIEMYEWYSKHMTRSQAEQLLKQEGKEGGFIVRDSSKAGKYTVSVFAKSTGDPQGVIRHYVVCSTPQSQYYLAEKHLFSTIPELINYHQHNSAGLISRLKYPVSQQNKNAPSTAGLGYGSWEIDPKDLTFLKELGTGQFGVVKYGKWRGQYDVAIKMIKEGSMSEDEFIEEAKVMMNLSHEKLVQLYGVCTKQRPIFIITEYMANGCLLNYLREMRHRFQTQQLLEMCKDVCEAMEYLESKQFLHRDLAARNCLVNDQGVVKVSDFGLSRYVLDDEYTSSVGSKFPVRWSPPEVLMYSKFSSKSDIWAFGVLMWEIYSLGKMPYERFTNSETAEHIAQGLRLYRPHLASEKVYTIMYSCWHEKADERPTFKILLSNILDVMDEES

Results are given in words; binding and its absence hold for the method and conditions named.

This assay deals with Full-length Btk (no His tag) (human) (UniProt Q06187). The experiment in a line: TIRF microscopy of recruitment to supported-lipid bilayers; Btk, Grb2 and SOS-PRR-AlexaFluor647, or Grb2 and SOS-PRR-AlexaFluor647, added to a PIP3-containing membrane; AlexaFluor647 intensity at the membrane; both purified.

Turning to “SOS-PRR labeled with Alexa Fluor 647 (from UniProt Q07889 1051-1333) (domain or fragment)”, the binding entry is reported as “no binding”.
